PubChem BioAssay AID1259308 | NCATS, 2017
In all, the deposit lists about 59,000 reagents; this is a part drawn at random. About 1,510 of them (2.6%) count as active. 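Calls use total luciferase alone and ignore viability, so some active siRNAs may act by altering cell number.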 Unmarked entries are inactive. Further read-outs or replicates are left out here.

- Purpose: 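Knock-downs that increase output of a recombinant reporter protein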 (primary screen)
- System: human HEK293 embryonic kidney cells stably expressing firefly luciferase (HEK-CMV-Luc2-Hygro)
- Knock-down reagent: single siRNA against human genes, 0.8 pmol siRNA per well
- Duration: 72 h
- Read-out: 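Reporter luminescence and viable-cell signal on separate replicate plates, given as percent of non-targeting control and median/MAD z-scores, plus per-cell luciferase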
- Scale: total luciferase, z-score and total luciferase, % of control: higher = more reporter protein produced
- Hit rule: 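Active when the median/MAD z-score for overall luciferase is greater than 3; a gene was taken forward for validation with new siRNAs if at least two of its three siRNAs passed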
- Calls: active = raised luciferase; inactive = no rise

For SH3YL1 (GeneID 26751) [SID160738175] the deposit lists total luciferase, z-score 0.0484; total luciferase, % of control 82.8.
Depletion of SH3YL1 (GeneID 26751) [SID160738176] gave: total luciferase, z-score 0.701; total luciferase, % of control 95.8.
With knock-down of SH3YL1 (GeneID 26751) [SID160738177], the screen gave total luciferase, z-score -0.619; total luciferase, % of control 69.6.
C1orf159 (GeneID 54991) [SID160742687] gave total luciferase, z-score 0.381; total luciferase, % of control 89.5.
Against C1orf159 (GeneID 54991) [SID160742688], the values are total luciferase, z-score 1.12; total luciferase, % of control 104.
Against C1orf159 (GeneID 54991) [SID160742689], the entry reads total luciferase, z-score -0.31; total luciferase, % of control 75.7.
Against SSH3 (GeneID 54961) [SID160742608], the values are total luciferase, z-score -0.357; total luciferase, % of control 74.8.
With knock-down of SSH3 (GeneID 54961) [SID160742609], the screen gave total luciferase, z-score -0.326; total luciferase, % of control 75.4.
SSH3 (GeneID 54961) [SID160742610] gave total luciferase, z-score 0.238; total luciferase, % of control 86.6.
For PAEP (GeneID 5047) [SID160778529] the deposit lists total luciferase, z-score 0.33; total luciferase, % of control 88.5.
With knock-down of PAEP (GeneID 5047) [SID160778530] the results were total luciferase, z-score 1.14; total luciferase, % of control 104.
Knock-down of PAEP (GeneID 5047) [SID160778531] resulted in: total luciferase, z-score 0.148; total luciferase, % of control 84.8.
Knock-down of RUFY4 (GeneID 285180) [SID160763518] gave: total luciferase, z-score 1.19; total luciferase, % of control 106.
For RUFY4 (GeneID 285180) [SID160763519], the values are total luciferase, z-score -0.0934; total luciferase, % of control 80.
Against RUFY4 (GeneID 285180) [SID160763520], the entry reads total luciferase, z-score -0.555; total luciferase, % of control 70.8.
DEPTOR (GeneID 64798) [SID160748009] gave total luciferase, z-score 0.329; total luciferase, % of control 88.4.
DEPTOR (GeneID 64798) [SID160748010] gave total luciferase, z-score -1.18; total luciferase, % of control 58.4.
For DEPTOR (GeneID 64798) [SID160748012], the values are total luciferase, z-score 0.321; total luciferase, % of control 88.3.
CPLANE1 (GeneID 65250) [SID160734142] showed total luciferase, z-score -0.232; total luciferase, % of control 77.3.
Silencing of CPLANE1 (GeneID 65250) [SID160748303] resulted in: total luciferase, z-score -0.188; total luciferase, % of control 78.2.
Knock-down of CPLANE1 (GeneID 65250) [SID160748304] gave: total luciferase, z-score 0.512; total luciferase, % of control 92.1.
Against TLR6 (GeneID 10333) [SID160728201], the entry reads total luciferase, z-score 0.67; total luciferase, % of control 95.2.
TLR6 (GeneID 10333) [SID160728202] showed total luciferase, z-score 0.706; total luciferase, % of control 95.9.
Knock-down of TLR6 (GeneID 10333) [SID160728203] resulted in: total luciferase, z-score 0.0339; total luciferase, % of control 82.6.
With knock-down of MXRA5 (GeneID 25878) [SID160737163], the record shows total luciferase, z-score -1.36; total luciferase, % of control 54.8.
After knock-down of MXRA5 (GeneID 25878) [SID160737164], the record shows total luciferase, z-score -0.828; total luciferase, % of control 65.4.
MXRA5 (GeneID 25878) [SID160737165] scored total luciferase, z-score -0.729; total luciferase, % of control 67.4.
Against EML3 (GeneID 256364) [SID160762434], the values are total luciferase, z-score -0.289; total luciferase, % of control 76.1.
EML3 (GeneID 256364) [SID160762435] showed total luciferase, z-score -1.12; total luciferase, % of control 59.7.
Silencing of EML3 (GeneID 256364) [SID160762436] gave: total luciferase, z-score -0.986; total luciferase, % of control 62.3.
HABP4 (GeneID 22927) [SID160733663] scored total luciferase, z-score 3.07 (active); total luciferase, % of control 143.
HABP4 (GeneID 22927) [SID160733671] gave total luciferase, z-score -0.57; total luciferase, % of control 70.6.
Silencing of HABP4 (GeneID 22927) [SID160733680] resulted in: total luciferase, z-score -0.432; total luciferase, % of control 73.3.

Look-ups from the entries so far.
Value of TLR6 (GeneID 10333) [SID160728201] under “total luciferase, z-score”: 0.67
EML3 (GeneID 256364) [SID160762436], total luciferase, z-score = -0.986
HABP4 (GeneID 22927) [SID160733680], total luciferase, % of control → 73.3
For “total luciferase, % of control”, EML3 (GeneID 256364) [SID160762435] shows 59.7
